Test results published in paper PMC12670160, “A drug-repurposing screen of FDA- and EMA-approved drugs identifies two NF-κB inhibitors active against eumycetoma” (Journal of Antimicrobial Chemotherapy, 2025).
Counter-ions that a name gives are not always drawn. About 130 (2.5%) of roughly 5,300 compounds showed an effect of 50% or more. Some of the results follow. Numbered stars: 1 amine (or outer) side, 2 acyl side, 3 side chain; on linkers, the order of the positions; unused ones are H or OH. Bridge positions count the residues as written; N and C are the ends. Square brackets hold non-standard residues; d marks the D form. Peptide text beside a SMILES is read from it. * marks the point of attachment. X2 = NC1=N[C@@H](O)CC([C@H](N[*:1])C(=O)[*:2])N1; ΔAla(Z-3-ureido) = NC(=O)N/C=C(\N)C(=O)O; β3hOrn = NCCC[C@H](N)CC(=O)*; Dap = NC[C@H](N)C(=O)O

system: M. mycetomatis strain mm55; conditions: primary screen, metabolic activity vs growth control; 96 h, 2 µM; inhibitor

| SMILES | % viability [%] |
| --- | --- |
| CC1(C)S[C@@H]2[C@H](NC(=O)Cc3ccccc3)C(=O)N2[C@H]1C(=O)O [ONC0000471, penicillin g potassium] | 76.26 |
| CN(C)[C@@H]1C(=O)C(C(N)=O)C(=O)[C@@]2(O)C(=O)C3C(=O)c4c(O)ccc(Cl)c4[C@@H](O)[C@H]3C[C@@H]12 (stereo partly shown) [ONC0000432, demeclocycline hydrochloride] | 77.24 |
| Clc1cccc(SC2CCNCC2)n1 [ONC0001513, anpirtoline] | 76.41 |
| CC(C)(CO)CCCCCCC(C)(C)CO [ONC0002138, gemcadiol] | 81.24 |
| CC(=O)OCC1=C(C(=O)O)N2C(=O)[C@@H](NC(=O)Cc3cccs3)[C@H]2SC1 [ONC0003428, cephalothin] | 60.13 |
| Clc1ccc(C(Cn2ccnc2)OCc2csc3c(Cl)cccc23)c(Cl)c1 (stereo not shown) [ONC0005215, sertaconazole nitrate] | 82 |
| COC(=O)c1csc(C(=O)c2c[nH]c3ccccc23)n1 [ONC0000157, ite] | 92.52 |
| CCOc1ccc(NC(=O)CC(C)O)cc1 (stereo not shown) [ONC0005306, bucetin] | 90.99 |
| C=CCn1c(=O)c2cnc(Nc3ccc(N4CCN(C)CC4)cc3)nc2n1-c1cccc(C(C)(C)O)n1 [ONC0004872, mk1775] | 112.3 |
| Cc1nc2n(c(=O)c1CCN1CCC(c3noc4cc(F)ccc34)CC1)CCCC2O (stereo not shown) [ONC0004214, paliperidone] | 70.62 |
| CCN(CC)CCNC(=O)COc1ccc(OC)cc1 [ONC0000676, mefexamide hydrochloride] | 93.51 |
| COc1ccc(-c2nc3ccc(C4=NNC(=O)CC4C)cc3[nH]2)cc1 (stereo not shown) [ONC0004871, pimobendan vetmedin] | 86.97 |
| CC(C)Nc1nc2cc(Cl)c(Cl)cc2n1[C@H]1O[C@@H](CO)[C@H](O)[C@@H]1O [ONC0002109, maribavir] | 67.92 |
| CN(CCOc1ccc(C[C@H](Nc2ccccc2C(=O)c2ccccc2)C(=O)O)cc1)c1ccccn1 [ONC0002597, gw1929] | 67.67 |
| C[C@H]1[C@H](OC(=O)CCC(=O)O)O[C@@H]2O[C@@]3(C)CC[C@H]4[C@H](C)CC[C@@H]1[C@@]24OO3 [ONC0003919, artesunate] | 64.01 |
| O=C(O)CCC(=O)C(=O)O [ONC0003748, 2oxoglutaricacid] | 95.08 |
| COc1ccc2[nH]cc(C3=CCNCC3)c2c1 [ONC0001150, ru 24969] | 88.9 |
| C[n+]1ccccc1/C=N/O [ONC0004059, pralidoxime mesylate] | 102.4 |
| CCC(C)n1ncn(-c2ccc(N3CCN(c4ccc(OCC5COC(Cn6cncn6)(c6ccc(Cl)cc6Cl)O5)cc4)CC3)cc2)c1=O (stereo not shown) [Itraconazole hydrochloride] | 4.9 |
| Cc1cccc(Nc2ccccc2C(=O)O)c1C [ONC0000695, mefenamic acid] | 132.3 |

| SMILES | % viability [%] |
| --- | --- |
| CCOc1cc(N)c(Cl)cc1C(=O)NCC1CN(Cc2ccc(F)cc2)CCO1 (stereo not shown) [ONC0004914, mosapride citrate] | 102.1 |
| NC(=O)CN1CC[C@@H](NC(=O)[C@@H]2CCCN2)C1=O [ONC0001897, paopa] | 92.79 |
| O/N=C/c1cc[n+](COC[n+]2ccc(/C=N/O)cc2)cc1 [ONC0003820, obidoxime] | 65.57 |
| [H]/N=C(/N)N/C(=N/[H])NCCc1ccccc1 [ONC0000619, phenformin hydrochloride] | 104.4 |
| CC(C)(C(=O)NCC(F)(F)C(F)(F)F)C(=O)N[C@@H]1C(=O)Nc2ccccc2-c2ccccc21 [ONC0000838, ro4929097] | 74.79 |
| CCN(CC)CCOc1ccccc1C(=O)CCc1ccccc1 [ONC0003543, etafenone] | 110.8 |
| CCOC(=O)c1ncc2[nH]c3ccc(OCc4ccccc4)cc3c2c1COC [ONC0002534, zk93423] | 55.97 |
| Cc1cc(C)c(CNC(=O)c2cc(-c3ccc(N4CCN(C)CC4)nc3)cc3c2c(C)cn3C(C)C)c(=O)[nH]1 [ONC0000860, gsk503] | 78.28 |
| CNCCCN1c2ccccc2CCc2ccccc21 [ONC0000421, desipramine hydrochloride] | 61.2 |
| O=C1c2c(O)cc(O)cc2O[C@H](c2cc(O)c(O)c(O)c2)[C@H]1O [ONC0000951, dihydromyricetin] | 59.72 |
| NP(N)(=O)NC(=O)c1ccc(F)cc1 [ONC0003584, flurofamide] | 116.4 |
| Cc1ccsc1C(=CCCN1CCC[C@@H](C(=O)O)C1)c1sccc1C [ONC0002021, tiagabinehcl] | 76.03 |
| Cc1ccc(-c2c(-c3nn(C)c4ncnc(N5CC[C@H](N6CCCCC6)C5)c34)cnn2C)cc1 [pf4981517] | 79.1 |
| CC[n+]1c(-c2ccccc2)c2cc(N)ccc2c2ccc(N)cc21 [ONC0002749, homidium bromide] | 95.42 |
| O=C1OC(CN2CCOCC2)CN1/N=C/c1ccc([N+](=O)[O-])o1 (stereo not shown) [ONC0004035, furaltadone] | 70.86 |
| CCCC(=O)OCOC(=O)C1=C(C)NC(C)=C(C(=O)OC)C1c1cccc(Cl)c1Cl (stereo not shown) [ONC0004887, clevidipine butyrate] | 116 |
| CCN(CC)CCCCN1c2ccccc2Oc2ccc(Cl)cc21 [ONC0003148, 10debc] | 124.6 |
| NCCC[C@H](N)CC(=O)N[C@H]1CNC(=O)[C@H]([C@H]2C[C@H](O)NC(N)=N2)NC(=O)/C(=C/NC(N)=O)NC(=O)[C@H](CO)NC(=O)[C@H](CO)NC1=O [ONC0002739, viomycin] (β3hOrn-[Dap]SS[ΔAla(Z-3-ureido)][X2]; lactam 1-C) | 97.19 |
| CC12CCC3C(=CCc4cc(O)ccc43)C1CCC2=O (stereo not shown) [ONC0005444, equilin] | 126.8 |
| Nc1nc2c(c(=O)[nH]1)N(C=O)C(CNc1ccc(C(=O)N[C@@H](CCC(=O)O)C(=O)O)cc1)CN2 (stereo partly shown) [ONC0000399, leucovorin calcium] | 60.67 |

An excerpt from above in order of count of non-hydrogen atoms, largest number first.

| SMILES | % viability [%] |
| --- | --- |
| C[C@H]1[C@H](OC(=O)CCC(=O)O)O[C@@H]2O[C@@]3(C)CC[C@H]4[C@H](C)CC[C@@H]1[C@@]24OO3 [ONC0003919, artesunate] | 64.01 |
| Cc1ccsc1C(=CCCN1CCC[C@@H](C(=O)O)C1)c1sccc1C [ONC0002021, tiagabinehcl] | 76.03 |
| C[n+]1ccccc1/C=N/O [ONC0004059, pralidoxime mesylate] | 102.4 |
